PubChem BioAssay AID1224828, NIAID – 2016

- Test: 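Find genes required for NF-kappaB p65 moving into the nucleus after LPS in mouse macrophages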 (primary screen)
- Cell system: mouse RAW264.7 G9 macrophage reporter cells (GFP-p65, Tnf promoter-mCherry)
- Reagent: siRNA pool against mouse genes, 100 nM
- Time to read-out: 2 days siRNA transfection, then 40 min LPS before fixation
- Challenge: LPS (Salmonella minnesota R595) at 10 ng/ml
- Detection: 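Imaged p65 nuclear translocation ratio, normalised to the plate median, converted to robust z-scores and averaged across two replicates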
- Scale: p65 translocation robust z-score: higher = more nuclear NF-kappaB p65 after LPS than the plate median; nuclear/cytoplasmic p65 ratio: higher = more nuclear NF-kappaB p65
- Call rule: 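Active if robust z is above 3.3 (negative regulators) or below -1.56, the Tlr4 control median (positive regulators); activity score 50 or more; control wells not called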
- Meaning of the calls: active = hit (p65 shift raised or lowered); inactive = no clear change
Here is one part, drawn at random, of about 17,000 reagents tested. Of all reagents, 762 (4.5%) are marked active. 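Active calls include both raised and lowered p65 entry, mostly lowered; wells with fewer than 50 cells lack a z-score.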 Raw values vary from plate to plate and are shown uncorrected. Unmarked entries are inactive.

{"gene knocked down": "Arhgap39 (GeneID 223666)", "p65 translocation robust z-score": 1.16, "nuclear/cytoplasmic p65 ratio, rep 1": 1.71, "nuclear/cytoplasmic p65 ratio, rep 2": 2.01, "low cell count flag": "enough cells to score"}
{"gene knocked down": "Mal2 (GeneID 105853)", "p65 translocation robust z-score": 1.78, "nuclear/cytoplasmic p65 ratio, rep 1": 1.89, "nuclear/cytoplasmic p65 ratio, rep 2": 1.94, "low cell count flag": "enough cells to score"}
{"gene knocked down": "Asnsd1 (GeneID 70396)", "nuclear/cytoplasmic p65 ratio, rep 1": 1.39, "nuclear/cytoplasmic p65 ratio, rep 2": 1.51, "low cell count flag": "fewer than 50 cells per well; well left out of scoring"}
{"gene knocked down": "Rab25 (GeneID 53868)", "p65 translocation robust z-score": -0.12, "nuclear/cytoplasmic p65 ratio, rep 1": 1.56, "nuclear/cytoplasmic p65 ratio, rep 2": 1.44, "low cell count flag": "enough cells to score"}
{"gene knocked down": "Pcdhga7 (GeneID 93715)", "p65 translocation robust z-score": -0.32, "nuclear/cytoplasmic p65 ratio, rep 1": 1.4, "nuclear/cytoplasmic p65 ratio, rep 2": 1.2, "low cell count flag": "enough cells to score"}
{"gene knocked down": "Entr1 (GeneID 68112)", "p65 translocation robust z-score": -0.5, "nuclear/cytoplasmic p65 ratio, rep 1": 1.29, "nuclear/cytoplasmic p65 ratio, rep 2": 1.53, "low cell count flag": "enough cells to score"}
{"gene knocked down": "Cdh23 (GeneID 22295)", "p65 translocation robust z-score": -0.87, "nuclear/cytoplasmic p65 ratio, rep 1": 1.31, "nuclear/cytoplasmic p65 ratio, rep 2": 1.3, "low cell count flag": "enough cells to score"}
{"gene knocked down": "Bcat2 (GeneID 12036)", "p65 translocation robust z-score": -0.38, "nuclear/cytoplasmic p65 ratio, rep 1": 1.55, "nuclear/cytoplasmic p65 ratio, rep 2": 1.56, "low cell count flag": "enough cells to score"}
{"gene knocked down": "Tmed4 (GeneID 103694)", "p65 translocation robust z-score": 1.17, "nuclear/cytoplasmic p65 ratio, rep 1": 1.61, "nuclear/cytoplasmic p65 ratio, rep 2": 1.7, "low cell count flag": "enough cells to score"}
{"gene knocked down": "Spesp1 (GeneID 66712)", "nuclear/cytoplasmic p65 ratio, rep 1": 1.03, "nuclear/cytoplasmic p65 ratio, rep 2": 0.996, "low cell count flag": "fewer than 50 cells per well; well left out of scoring"}
{"gene knocked down": "Aco2 (GeneID 11429)", "p65 translocation robust z-score": -0.36, "nuclear/cytoplasmic p65 ratio, rep 1": 1.61, "nuclear/cytoplasmic p65 ratio, rep 2": 1.57, "low cell count flag": "enough cells to score"}
{"gene knocked down": "Or4c121 (GeneID 258969)", "p65 translocation robust z-score": -0.38, "nuclear/cytoplasmic p65 ratio, rep 1": 1.65, "nuclear/cytoplasmic p65 ratio, rep 2": 1.48, "low cell count flag": "enough cells to score"}
{"gene knocked down": "Krtap13-21 (GeneID 69696)", "nuclear/cytoplasmic p65 ratio, rep 1": 1.55, "nuclear/cytoplasmic p65 ratio, rep 2": 1.54, "low cell count flag": "fewer than 50 cells per well; well left out of scoring"}
{"gene knocked down": "Ugt2a3 (GeneID 72094)", "nuclear/cytoplasmic p65 ratio, rep 1": 1.48, "nuclear/cytoplasmic p65 ratio, rep 2": 1.28, "low cell count flag": "fewer than 50 cells per well; well left out of scoring"}
{"gene knocked down": "Commd8 (GeneID 27784)", "p65 translocation robust z-score": 1.4, "nuclear/cytoplasmic p65 ratio, rep 1": 1.85, "nuclear/cytoplasmic p65 ratio, rep 2": 1.94, "low cell count flag": "enough cells to score"}
{"gene knocked down": "Vps37d (GeneID 194309)", "p65 translocation robust z-score": 0.25, "nuclear/cytoplasmic p65 ratio, rep 1": 1.52, "nuclear/cytoplasmic p65 ratio, rep 2": 1.21, "low cell count flag": "enough cells to score"}
{"gene knocked down": "D930020B18Rik (GeneID 216393)", "p65 translocation robust z-score": -0.48, "nuclear/cytoplasmic p65 ratio, rep 1": 1.45, "nuclear/cytoplasmic p65 ratio, rep 2": 1.53, "low cell count flag": "enough cells to score"}
{"gene knocked down": "Ptpn11 (GeneID 19247)", "p65 translocation robust z-score": -1, "nuclear/cytoplasmic p65 ratio, rep 1": 1.33, "nuclear/cytoplasmic p65 ratio, rep 2": 1.3, "low cell count flag": "enough cells to score"}
{"gene knocked down": "Fabp6 (GeneID 16204)", "p65 translocation robust z-score": 0.31, "nuclear/cytoplasmic p65 ratio, rep 1": 1.5, "nuclear/cytoplasmic p65 ratio, rep 2": 1.41, "low cell count flag": "enough cells to score"}
{"gene knocked down": "Tmem121b (GeneID 94047)", "p65 translocation robust z-score": -0.39, "nuclear/cytoplasmic p65 ratio, rep 1": 1.51, "nuclear/cytoplasmic p65 ratio, rep 2": 1.74, "low cell count flag": "enough cells to score"}
{"gene knocked down": "Retreg2 (GeneID 227298)", "p65 translocation robust z-score": 1.31, "nuclear/cytoplasmic p65 ratio, rep 1": 1.55, "nuclear/cytoplasmic p65 ratio, rep 2": 1.76, "low cell count flag": "enough cells to score"}
